In paper PMC3955662:
No constants are given. Whether binding was seen depends on the method and setting. Binding seen in cells or lysates may run through a third protein. Some entries that bind do so weakly or less than the wild type.

Amino acid sequences for entries named in this document (tags omitted).
UniProt P31749: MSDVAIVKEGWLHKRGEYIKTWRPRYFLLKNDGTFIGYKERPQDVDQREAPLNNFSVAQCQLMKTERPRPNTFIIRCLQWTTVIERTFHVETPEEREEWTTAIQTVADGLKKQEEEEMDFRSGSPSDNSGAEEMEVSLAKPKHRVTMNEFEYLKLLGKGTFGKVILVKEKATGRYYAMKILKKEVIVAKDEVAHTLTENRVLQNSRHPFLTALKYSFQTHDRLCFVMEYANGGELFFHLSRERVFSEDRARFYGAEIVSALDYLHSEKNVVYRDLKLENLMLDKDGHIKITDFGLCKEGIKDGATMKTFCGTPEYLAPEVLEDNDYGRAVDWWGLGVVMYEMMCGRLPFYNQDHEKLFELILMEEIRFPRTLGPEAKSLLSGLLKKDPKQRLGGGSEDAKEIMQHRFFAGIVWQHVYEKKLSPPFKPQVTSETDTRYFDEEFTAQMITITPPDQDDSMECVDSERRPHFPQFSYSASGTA

B1: sc-35 (protein, UniProt Q01130 1-221)
chain: MSYGRPPPDVEGMTSLKVDNLTYRTSPDTLRRVFEKYGRVGDVYIPRDRYTKESRGFAFVRFHDKRDAEDAMDAMDGAVLDGRELRVQMARYGRPPDSHHSRRGPPPRRYGGGGYGRRSRSPRRRRRSRSRSRSRSRSRSRSRYSRSKSRSRTRSRSRSTSKSRSARRSKSKSSSVSRSRSRSRSRSRSRSPPPVSKRESKSRSRSKSPPKSPEEEGAVSS
B2: p22phox (protein, UniProt P13498 1-195)
chain: MGQIEWAMWANEQALASGLILITGGIVATAGRFTQWYFGAYSIVAGVFVCLLEYPRGKRKKGSTMERWGQKYMTAVVKLFGPFTRNYYVRAVLHLLLSVPAGFLLATILGTACLAIASGIYLLAAVRGEQWTPIEPKPRERPQIGGTIKQPPSNPPPRPPAEARKKPSEEEAAVAAGGPPGGPQVNPIPVTDEVV
B3: Matrin3 (protein, UniProt P43243 1-847)
chain: MSKSFQQSSLSRDSQGHGRDLSAAGIGLLAAATQSLSMPASLGRMNQGTARLASLMNLGMSSSLNQQGAHSALSSASTSSHNLQSIFNIGSRGPLPLSSQHRGDADQASNILASFGLSARDLDELSRYPEDKITPENLPQILLQLKRRRTEEGPTLSYGRDGRSATREPPYRVPRDDWEEKRHFRRDSFDDRGPSLNPVLDYDHGSRSQESGYYDRMDYEDDRLRDGERCRDDSFFGETSHNYHKFDSEYERMGRGPGPLQERSLFEKKRGAPPSSNIEDFHGLLPKGYPHLCSICDLPVHSNKEWSQHINGASHSRRCQLLLEIYPEWNPDNDTGHTMGDPFMLQQSTNPAPGILGPPPPSFHLGGPAVGPRGNLGAGNGNLQGPRHMQKGRVETSRVVHIMDFQRGKNLRYQLLQLVEPFGVISNHLILNKINEAFIEMATTEDAQAAVDYYTTTPALVFGKPVRVHLSQKYKRIKKPEGKPDQKFDQKQELGRVIHLSNLPHSGYSDSAVLKLAEPYGKIKNYILMRMKSQAFIEMETREDAMAMVDHCLKKALWFQGRCVKVDLSEKYKKLVLRIPNRGIDLLKKDKSRKRSYSPDGKESPSDKKSKTDGSQKTESSTEGKEQEEKSGEDGEKDTKDDQTEQEPNMLLESEDELLVDEEEAAALLESGSSVGDETDLANLGDVASDGKKEPSDKAVKKDGSASAAAKKKLKKVDKIEELDQENEAALENGIKNEENTEPGAESSENADDPNKDTSENADGQSDENKDDYTIPDEYRIGPYQPNVPVGIDYVIPKTGFYCKLCSLFYTNEEVAKNTHCSSLPHYQKLKKFLNKLAEERRQKKET

molecular target: T1, NADPH oxidase isoform 4 (Nox4) (human (endogenous in THP1)) (UniProt Q9NPH5); test: co-IP; precleared nuclear lysates of THP1 (AT lysis buffer, 1% Nonidet P-40, 150 mM NaCl) incubated 4 hours with 3 ug anti-Nox4, protein A/G agarose at 4°C, Western blot of the precipitate; preclearing fraction as control
T1 sequence: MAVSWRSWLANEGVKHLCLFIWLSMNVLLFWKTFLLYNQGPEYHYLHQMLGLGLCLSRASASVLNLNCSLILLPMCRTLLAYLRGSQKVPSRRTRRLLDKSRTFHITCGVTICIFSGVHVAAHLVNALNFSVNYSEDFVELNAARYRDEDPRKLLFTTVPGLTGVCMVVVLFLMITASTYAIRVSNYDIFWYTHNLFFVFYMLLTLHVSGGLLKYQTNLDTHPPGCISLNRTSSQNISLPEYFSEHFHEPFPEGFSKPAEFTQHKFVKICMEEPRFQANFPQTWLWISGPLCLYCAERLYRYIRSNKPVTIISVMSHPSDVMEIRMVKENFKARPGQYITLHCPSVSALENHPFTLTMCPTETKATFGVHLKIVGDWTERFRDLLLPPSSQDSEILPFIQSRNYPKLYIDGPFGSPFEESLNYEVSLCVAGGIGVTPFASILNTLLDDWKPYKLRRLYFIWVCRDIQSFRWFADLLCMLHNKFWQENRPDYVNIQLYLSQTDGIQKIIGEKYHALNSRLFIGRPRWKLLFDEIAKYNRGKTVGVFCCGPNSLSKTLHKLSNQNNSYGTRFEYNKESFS

binding, binds:
Akt1 (from UniProt P31749 1-480) (enzyme)
B1
B2
B3
